Measurements: article doi:10.1101/2020.06.05.136150 (bioRxiv, 2020)
Results are given in words; binding and its absence hold for the method and conditions named. Some results given as binding are weak or reduced against the parent protein; the word gives no strength. For part of these data: Tags and fused reporters may be left off the sequences shown.

Protein sequences, listed by entry. Tags and fused reporters are not part of them. Lines headed by an entry give the natural chain unless they say otherwise; changes in a name come on top.
UniProt P0A6S5: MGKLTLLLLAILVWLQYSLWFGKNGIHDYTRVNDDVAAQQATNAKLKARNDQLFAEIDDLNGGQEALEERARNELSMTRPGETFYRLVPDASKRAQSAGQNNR
UniProt P0AEN4: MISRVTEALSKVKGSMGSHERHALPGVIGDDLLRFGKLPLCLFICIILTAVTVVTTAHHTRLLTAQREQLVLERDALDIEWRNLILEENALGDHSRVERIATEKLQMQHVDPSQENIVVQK
UniProt P06136: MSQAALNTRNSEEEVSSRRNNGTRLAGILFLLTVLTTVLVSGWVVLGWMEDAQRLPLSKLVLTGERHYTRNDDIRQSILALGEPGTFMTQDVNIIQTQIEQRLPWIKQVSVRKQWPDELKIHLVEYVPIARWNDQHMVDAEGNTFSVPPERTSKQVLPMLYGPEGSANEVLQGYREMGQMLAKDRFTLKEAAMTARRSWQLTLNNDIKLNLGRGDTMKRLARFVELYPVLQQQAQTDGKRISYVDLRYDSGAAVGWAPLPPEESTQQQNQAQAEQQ

T1: FITC labeled peptide (FITC-K69-Q93) of FtsN (E. coli)
T1 sequence (peptide, FITC fluorophore attached at the N-terminus): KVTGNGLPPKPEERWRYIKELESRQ

T2: HisFtsN (full length FtsN) (E. coli) (UniProt P29131)
T2 sequence: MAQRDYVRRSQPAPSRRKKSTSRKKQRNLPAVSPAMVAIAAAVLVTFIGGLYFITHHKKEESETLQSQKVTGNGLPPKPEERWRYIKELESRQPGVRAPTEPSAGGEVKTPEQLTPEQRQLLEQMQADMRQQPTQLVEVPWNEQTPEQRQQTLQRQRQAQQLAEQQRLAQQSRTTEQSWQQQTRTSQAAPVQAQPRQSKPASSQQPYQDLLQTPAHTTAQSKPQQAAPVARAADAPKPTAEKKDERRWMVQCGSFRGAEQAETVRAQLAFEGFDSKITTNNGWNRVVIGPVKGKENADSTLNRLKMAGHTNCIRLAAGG

T3: HisFtsN^130 (FtsN M1-R130) (E. coli) (UniProt P29131)
T3 sequence: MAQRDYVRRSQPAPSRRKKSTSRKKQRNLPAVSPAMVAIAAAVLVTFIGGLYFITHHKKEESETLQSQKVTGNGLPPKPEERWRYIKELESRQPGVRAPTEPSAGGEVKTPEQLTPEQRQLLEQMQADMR


Legend:
[1] = target: T1, FITC labeled peptide (FITC-K69-Q93) of FtsN (E. coli); experiment: fluorescence polarisation
[2] = target: T2, HisFtsN (full length FtsN) (E. coli); experiment: co-expression and co-purification
[3] = target: T3, HisFtsN^130 (FtsN M1-R130) (E. coli); experiment: co-expression and co-purification

| binding [1] | binding [2] | binding [3] | Molecule |
| --- | --- | --- | --- |
| no binding | – | – | FtsBLQ complex (from UniProt P0A6S5;P0AEN4;P06136) |
| – | binds | binds | PBP1b co-expressed with HisFtsN or HisFtsN^130 (enzyme, UniProt P02919 1-844) MAGNDREPIGRKGKPTRPVKQKVSRRRYEDDDDYDDYDDYEDEEPMPRKGKGKGKGRKPRGKRGWLWLLLKLAIVFAVLIAIYGVYLDQKIRSRIDGKVWQLPAAVYGRMVNLEPDMTISKNEMVKLLEATQYRQVSKMTRPGEFTVQANSIEMIRRPFDFPDSKEGQVRARLTFDGDHLATIVNMENNRQFGFFRLDPRLITMISSPNGEQRLFVPRSGFPDLLVDTLLATEDRHFYEHDGISLYSIGRAVLANLTAGRTVQGASTLTQQLVKNLFLSSERSYWRKANEAYMALIMDARYSKDRILELYMNEVYLGQSGDNEIRGFPLASLYYFGRPVEELSLDQQALLVGMVKGASIYNPWRNPKLALERRNLVLRLLQQQQIIDQELYDMLSARPLGVQPRGGVISPQPAFMQLVRQELQAKLGDKVKDLSGVKIFTTFDSVAQDAAEKAAVEGIPALKKQRKLSDLETAIVVVDRFSGEVRAMVGGSEPQFAGYNRAMQARRSIGSLAKPATYLTALSQPKIYRLNTWIADAPIALRQPNGQVWSPQNDDRRYSESGRVMLVDALTRSMNVPTVNLGMALGLPAVTETWIKLGVPKDQLHPVPAMLLGALNLTPIEVAQAFQTIASGGNRAPLSALRSVIAEDGKVLYQSFPQAERAVPAQAAYLTLWTMQQVVQRGTGRQLGAKYPNLHLAGKTGTTNNNVDTWFAGIDGSTVTITWVGRDNNQPTKLYGASGAMSIYQRYLANQTPTPLNLVPPEDIADMGVDYDGNFVCSGGMRILPVWTSDPQSLCQQSEMQQQPSGNPFDQSSQPQQQPQQQPAQQEQKDSDGVAGWIKDMFGSN |
| no binding | – | – | PBP1a (enzyme, UniProt P02918 1-850) MKFVKYFLILAVCCILLGAGSIYGLYRYIEPQLPDVATLKDVRLQIPMQIYSADGELIAQYGEKRRIPVTLDQIPPEMVKAFIATEDSRFYEHHGVDPVGIFRAASVALFSGHASQGASTITQQLARNFFLSPERTLMRKIKEVFLAIRIEQLLTKDEILELYLNKIYLGYRAYGVGAAAQVYFGKTVDQLTLNEMAVIAGLPKAPSTFNPLYSMDRAVARRNVVLSRMLDEGYITQQQFDQTRTEAINANYHAPEIAFSAPYLSEMVRQEMYNRYGESAYEDGYRIYTTITRKVQQAAQQAVRNNVLDYDMRHGYRGPANVLWKVGESAWDNNKITDTLKALPTYGPLLPAAVTSANPQQATAMLADGSTVALSMEGVRWARPYRSDTQQGPTPRKVTDVLQTGQQIWVRQVGDAWWLAQVPEVNSALVSINPQNGAVMALVGGFDFNQSKFNRATQALRQVGSNIKPFLYTAAMDKGLTLASMLNDVPISRWDASAGSDWQPKNSPPQYAGPIRLRQGLGQSKNVVMVRAMRAMGVDYAAEYLQRFGFPAQNIVHTESLALGSASFTPMQVARGYAVMANGGFLVDPWFISKIENDQGGVIFEAKPKVACPECDIPVIYGDTQKSNVLENNDVEDVAISREQQNVSVPMPQLEQANQALVAKTGAQEYAPHVINTPLAFLIKSALNTNIFGEPGWQGTGWRAGRDLQRRDIGGKTGTTNSSKDAWFSGYGPGVVTSVWIGFDDHRRNLGHTTASGAIKDQISGYEGGAKSAQPAWDAYMKAVLEGVPEQPLTPPPGIVTVNIDRSTGQLANGGNSREEYFIEGTQPTQQAVHEVGTTIIDNGEAQELF |
| no binding | – | – | PBP3 (enzyme, UniProt P0AD68 1-577) MKAAAKTQKPKRQEEHANFISWRFALLCGCILLALAFLLGRVAWLQVISPDMLVKEGDMRSLRVQQVSTSRGMITDRSGRPLAVSVPVKAIWADPKEVHDAGGISVGDRWKALANALNIPLDQLSARINANPKGRFIYLARQVNPDMADYIKKLKLPGIHLREESRRYYPSGEVTAHLIGFTNVDSQGIEGVEKSFDKWLTGQPGERIVRKDRYGRVIEDISSTDSQAAHNLALSIDERLQALVYRELNNAVAFNKAESGSAVLVDVNTGEVLAMANSPSYNPNNLSGTPKEAMRNRTITDVFEPGSTVKPMVVMTALQRGVVRENSVLNTIPYRINGHEIKDVARYSELTLTGVLQKSSNVGVSKLALAMPSSALVDTYSRFGLGKATNLGLVGERSGLYPQKQRWSDIERATFSFGYGLMVTPLQLARVYATIGSYGIYRPLSITKVDPPVPGERVFPESIVRTVVHMMESVALPGGGGVKAAIKGYRIAIKTGTAKKVGPDGRYINKYIAYTAGVAPASQPRFALVVVINDPQAGKYYGGAVSAPVFGAIMGGVLRTMNIEPDALTTGDKNEFV |
| no binding | – | – | FtsW-PBP3 complex (complex, UniProt P0ABG4;P0AD68) chain 1: MRLSLPRLKMPRLPGFSILVWISTALKGWVMGSREKDTDSLIMYDRTLLWLTFGLAAIGFIMVTSASMPIGQRLTNDPFFFAKRDGVYLILAFILAIITLRLPMEFWQRYSATMLLGSIILLMIVLVVGSSVKGASRWIDLGLLRIQPAELTKLSLFCYIANYLVRKGDEVRNNLRGFLKPMGVILVLAVLLLAQPDLGTVVVLFVTTLAMLFLAGAKLWQFIAIIGMGISAVVLLILAEPYRIRRVTAFWNPWEDPFGSGYQLTQSLMAFGRGELWGQGLGNSVQKLEYLPEAHTDFIFAIIGEELGYVGVVLALLMVFFVAFRAMSIGRKALEIDHRFSGFLACSIGIWFSFQALVNVGAAAGMLPTKGLTLPLISYGGSSLLIMSTAIMMLLRIDYETRLEKAQAFVRGSR chain 2: MKAAAKTQKPKRQEEHANFISWRFALLCGCILLALAFLLGRVAWLQVISPDMLVKEGDMRSLRVQQVSTSRGMITDRSGRPLAVSVPVKAIWADPKEVHDAGGISVGDRWKALANALNIPLDQLSARINANPKGRFIYLARQVNPDMADYIKKLKLPGIHLREESRRYYPSGEVTAHLIGFTNVDSQGIEGVEKSFDKWLTGQPGERIVRKDRYGRVIEDISSTDSQAAHNLALSIDERLQALVYRELNNAVAFNKAESGSAVLVDVNTGEVLAMANSPSYNPNNLSGTPKEAMRNRTITDVFEPGSTVKPMVVMTALQRGVVRENSVLNTIPYRINGHEIKDVARYSELTLTGVLQKSSNVGVSKLALAMPSSALVDTYSRFGLGKATNLGLVGERSGLYPQKQRWSDIERATFSFGYGLMVTPLQLARVYATIGSYGIYRPLSITKVDPPVPGERVFPESIVRTVVHMMESVALPGGGGVKAAIKGYRIAIKTGTAKKVGPDGRYINKYIAYTAGVAPASQPRFALVVVINDPQAGKYYGGAVSAPVFGAIMGGVLRTMNIEPDALTTGDKNEFV |
